# Results as given in patent US10953003B2, “Methods for treating cancer” (X4 Pharmaceuticals, Inc., priority 2015, dated 2021).
# Columns and labels:
# 786-0 RCC xenografts = test: Murine 786-0 RCC xenograft model; format: in vivo, mice; conditions: 786-0 xenografts; FIG. 4A
# Procedure: (§1) With each of the human cell lines, 1×10^7 tumor cells were implanted subcutaneously in the flanks of 36 nude/beige mice and tumors allowed to grow to roughly 7 mm in diameter. […] Therefore, on day 7, the mice were sacrificed and the tumors were measured and immediately excised and divided into three parts. One part of each tumor was paraffin-embedded for dual color immunofluorescence. Another part was mechanically disaggregated and treated with collagenase/DNAse to generate a single cell suspension for flow cytometry. The third part was frozen for future pharmacokinetic analysis. Microscope slides were made from the paraffin-embedded tumor tissue, which were stained with antibodies against CD11b, Gr-1, and FAP. The number of infiltrating CD11b+/Gr-1+ MDSC and FAP+ fibroblasts present in the tumor tissue was then determined by immunofluorescence (IF) as previously described (1).
# (§2) The disaggregated tumor specimens were analyzed for CD11b+/Gr-1+ MDSC and FAP+ fibroblasts by flow cytometry. The fraction of both populations expressing CXCR4 were also determined. […] One part was disaggregated into single cell suspensions and analyzed by flow cytometry as above for MDSC. […] Finally, a bone marrow (BM) sample was generated by extruding marrow from an excised femur with a syringe filled with saline and analyzed by flow cytometry for MDSC.
# A498 RCC xenografts = test: Murine A498 RCC xenograft model; format: in vivo, mice; conditions: FIG. 4C
# Procedure: as §1, §2
smiles,measurement,setting,value
"CNC(=O)c1ccccc1Sc1ccc2c(/C=C/c3ccccn3)n[nH]c2c1 [axitinib, N-methyl-2-[3((E)-2-pyridin-2-yl-vinyl)-1H-indazol-6-ylsulfanyl]-benzamide]",Ki-67 positive tumor cells (IHC staining),786-0 RCC xenografts,increase in Ki-67 positive tumor cells
same,Ki-67 positive tumor cells (IHC staining),A498 RCC xenografts,increase in Ki-67 positive tumor cells
